Laboratory results from paper PMC11415397, “The Alpha-Synuclein Gene (SNCA) is a Genomic Target of Methyl-CpG Binding Protein 2 (MeCP2)—Implications for Parkinson’s Disease and Rett Syndrome”.

Protein sequences, listed by entry. Tags and fused reporters are not part of them. Lines headed by an entry give the natural chain unless they say otherwise; changes in a name come on top.
UniProt P51608: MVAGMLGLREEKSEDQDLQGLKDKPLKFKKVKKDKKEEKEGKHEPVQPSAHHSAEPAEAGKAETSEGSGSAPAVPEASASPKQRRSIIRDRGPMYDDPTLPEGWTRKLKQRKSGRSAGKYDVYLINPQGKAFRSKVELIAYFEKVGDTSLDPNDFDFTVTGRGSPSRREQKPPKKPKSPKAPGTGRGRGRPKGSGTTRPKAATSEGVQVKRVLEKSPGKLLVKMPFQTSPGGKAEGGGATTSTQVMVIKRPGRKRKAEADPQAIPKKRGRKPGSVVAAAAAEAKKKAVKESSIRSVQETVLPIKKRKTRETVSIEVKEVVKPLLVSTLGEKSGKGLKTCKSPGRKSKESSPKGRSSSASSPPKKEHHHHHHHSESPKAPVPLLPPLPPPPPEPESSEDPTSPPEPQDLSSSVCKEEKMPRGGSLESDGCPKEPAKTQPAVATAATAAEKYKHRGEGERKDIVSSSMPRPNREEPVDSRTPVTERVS

Molecular target: MeCP2 wild type (UniProt P51608)
Assay: EMSA
Settings: 10 mM Tris pH 7.5, 1 mM EDTA, 100 mM KCl, 100 uM DTT, 5% glycerol, 10 ug/ml BSA, 30 min room temperature, 50 fmol probe in 5 ul, MeCP2 30-75, recombinant protein, protein details: His, label: IRDye700 at 5' of LUEGO (S27)
[1] = shift only with methylated probe (legend: predominantly)

Sequence	binding result [1]	binding result (weak or almost undetectable in titration, Fig S2 text reports increased binding at 50 nmol, CpG 5mC, in vitro methylated (enzyme for the probe not stated in EMSA section))
GTGCCCTGGTCTGG / CTGGCTTTCGTCCTGCTTCTGATATTCCCTTCTC / GAGAAGGGAATATCAGAAGCAGGACGAAAGCCAGCCAGACCAGGGCAC [SNCA intron 1 CpG1 probe, unmethylated]	no binding	
GTGCCCTGGTCTGG / GCTGAGAGATTAGGCTGCTTCTCCGGGATCCGC / GCGGATCCCGGAGAAGCAGCCTAATCTCTCAGCCCAGACCAGGGCAC [SNCA intron 1 CpG2 probe, methylated]		binds more weakly
GTGCCCTGGTCTGG / GCTGAGAGATTAGGCTGCTTCTCCGGGATCCGC / GCGGATCCCGGAGAAGCAGCCTAATCTCTCAGCCCAGACCAGGGCAC [SNCA intron 1 CpG2 probe, unmethylated]	no binding	

The exact form of at least one protein or probe is not confirmed. Negatives hold for the conditions tested. At least one verdict rests on a figure or table, not on a statement of the authors. A weaker result is weaker than the reference pair of the same experiment.
